This note sets out measurements from PMC5945891, “Proteomics of Stored Red Blood Cell Membrane and Storage-Induced Microvesicles Reveals the Association of Flotillin-2 With Band 3 Complexes” (Frontiers in Physiology, 2018).

Chains of the proteins cited; added tags and fusions are not shown. Lines headed by an entry give the natural chain unless they say otherwise; changes in a name come on top.
UniProt P02730: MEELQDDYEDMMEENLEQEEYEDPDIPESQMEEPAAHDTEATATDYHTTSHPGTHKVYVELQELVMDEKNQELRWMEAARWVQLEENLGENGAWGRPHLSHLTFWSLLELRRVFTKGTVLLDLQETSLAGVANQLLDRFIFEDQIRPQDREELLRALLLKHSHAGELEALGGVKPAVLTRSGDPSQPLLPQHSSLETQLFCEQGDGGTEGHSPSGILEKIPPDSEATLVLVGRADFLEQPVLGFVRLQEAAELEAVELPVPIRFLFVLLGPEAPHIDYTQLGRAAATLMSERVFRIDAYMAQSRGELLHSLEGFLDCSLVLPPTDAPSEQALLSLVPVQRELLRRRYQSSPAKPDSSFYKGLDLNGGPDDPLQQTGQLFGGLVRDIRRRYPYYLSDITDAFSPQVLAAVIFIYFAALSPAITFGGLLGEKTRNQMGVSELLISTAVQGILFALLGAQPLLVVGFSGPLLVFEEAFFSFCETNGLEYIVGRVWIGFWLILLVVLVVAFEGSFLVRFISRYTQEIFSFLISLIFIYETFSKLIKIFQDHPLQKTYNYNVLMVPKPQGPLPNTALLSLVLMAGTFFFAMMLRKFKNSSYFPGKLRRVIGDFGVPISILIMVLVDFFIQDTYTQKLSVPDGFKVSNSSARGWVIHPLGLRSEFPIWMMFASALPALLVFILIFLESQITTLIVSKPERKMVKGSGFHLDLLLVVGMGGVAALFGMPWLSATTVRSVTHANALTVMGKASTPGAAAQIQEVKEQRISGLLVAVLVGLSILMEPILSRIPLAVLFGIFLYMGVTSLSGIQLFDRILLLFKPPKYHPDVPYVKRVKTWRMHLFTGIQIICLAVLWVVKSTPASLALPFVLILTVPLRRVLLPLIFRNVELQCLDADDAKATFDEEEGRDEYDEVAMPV
UniProt P61088: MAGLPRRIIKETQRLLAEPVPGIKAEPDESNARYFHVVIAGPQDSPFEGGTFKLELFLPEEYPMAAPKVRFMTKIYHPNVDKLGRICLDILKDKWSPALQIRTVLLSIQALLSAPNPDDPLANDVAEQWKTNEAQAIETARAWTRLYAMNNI
UniProt P02042: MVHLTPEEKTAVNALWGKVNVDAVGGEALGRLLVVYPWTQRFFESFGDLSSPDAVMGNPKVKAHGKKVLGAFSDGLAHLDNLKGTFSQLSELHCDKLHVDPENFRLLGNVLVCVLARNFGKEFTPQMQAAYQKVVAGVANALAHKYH
UniProt P53396: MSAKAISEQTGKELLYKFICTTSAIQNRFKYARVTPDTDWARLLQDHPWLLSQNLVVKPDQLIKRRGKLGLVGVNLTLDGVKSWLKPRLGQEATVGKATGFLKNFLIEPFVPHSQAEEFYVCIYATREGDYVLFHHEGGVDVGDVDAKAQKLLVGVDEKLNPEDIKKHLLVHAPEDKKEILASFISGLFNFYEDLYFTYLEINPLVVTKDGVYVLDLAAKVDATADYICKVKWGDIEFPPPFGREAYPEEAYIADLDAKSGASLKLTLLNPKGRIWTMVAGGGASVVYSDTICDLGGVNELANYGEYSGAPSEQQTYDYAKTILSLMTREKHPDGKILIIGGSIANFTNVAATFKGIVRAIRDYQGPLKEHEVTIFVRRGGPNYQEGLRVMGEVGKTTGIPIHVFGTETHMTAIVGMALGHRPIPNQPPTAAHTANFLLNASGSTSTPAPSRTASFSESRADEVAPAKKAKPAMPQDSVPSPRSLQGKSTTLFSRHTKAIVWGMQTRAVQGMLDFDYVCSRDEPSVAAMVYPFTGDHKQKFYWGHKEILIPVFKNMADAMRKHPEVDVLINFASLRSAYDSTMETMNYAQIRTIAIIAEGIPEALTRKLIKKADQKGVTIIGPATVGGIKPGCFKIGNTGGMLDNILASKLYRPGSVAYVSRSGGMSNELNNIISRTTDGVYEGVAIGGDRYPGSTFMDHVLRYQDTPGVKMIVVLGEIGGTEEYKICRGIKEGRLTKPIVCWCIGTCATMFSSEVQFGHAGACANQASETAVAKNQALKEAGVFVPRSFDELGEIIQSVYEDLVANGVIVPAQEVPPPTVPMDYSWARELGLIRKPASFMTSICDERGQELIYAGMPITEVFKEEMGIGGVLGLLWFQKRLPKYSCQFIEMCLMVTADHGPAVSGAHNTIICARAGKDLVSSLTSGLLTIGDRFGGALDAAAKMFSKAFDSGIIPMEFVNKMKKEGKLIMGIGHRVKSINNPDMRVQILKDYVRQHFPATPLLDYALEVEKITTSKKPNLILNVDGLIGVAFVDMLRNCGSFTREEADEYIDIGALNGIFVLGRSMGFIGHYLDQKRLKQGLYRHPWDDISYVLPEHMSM
UniProt P35611: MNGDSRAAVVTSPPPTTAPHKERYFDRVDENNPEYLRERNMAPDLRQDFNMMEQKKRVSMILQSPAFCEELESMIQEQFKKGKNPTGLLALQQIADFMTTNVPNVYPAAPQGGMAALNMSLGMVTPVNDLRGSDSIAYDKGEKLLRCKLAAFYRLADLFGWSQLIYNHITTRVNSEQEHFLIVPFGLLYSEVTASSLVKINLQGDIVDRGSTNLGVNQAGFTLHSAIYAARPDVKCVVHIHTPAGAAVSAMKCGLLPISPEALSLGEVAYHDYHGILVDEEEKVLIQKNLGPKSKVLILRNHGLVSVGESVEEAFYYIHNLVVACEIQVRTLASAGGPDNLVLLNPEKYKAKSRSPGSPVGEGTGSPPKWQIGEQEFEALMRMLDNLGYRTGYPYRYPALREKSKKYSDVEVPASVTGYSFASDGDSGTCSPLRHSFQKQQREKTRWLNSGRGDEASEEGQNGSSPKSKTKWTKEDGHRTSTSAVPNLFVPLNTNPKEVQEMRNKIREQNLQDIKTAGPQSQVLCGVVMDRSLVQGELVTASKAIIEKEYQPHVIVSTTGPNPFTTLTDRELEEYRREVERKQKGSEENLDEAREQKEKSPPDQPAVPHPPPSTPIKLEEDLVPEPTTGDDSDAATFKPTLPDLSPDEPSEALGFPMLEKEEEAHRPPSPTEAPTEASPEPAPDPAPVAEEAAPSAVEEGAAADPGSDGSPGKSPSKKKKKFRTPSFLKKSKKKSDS
UniProt P61224: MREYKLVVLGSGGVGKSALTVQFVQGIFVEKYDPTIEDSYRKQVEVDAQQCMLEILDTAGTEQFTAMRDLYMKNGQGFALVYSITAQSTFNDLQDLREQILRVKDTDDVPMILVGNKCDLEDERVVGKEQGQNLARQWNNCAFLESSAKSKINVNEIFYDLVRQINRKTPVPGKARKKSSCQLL

Results are given in words; binding and its absence hold for the method and conditions named. Binding seen in cells or lysates may run through a third protein. Here binding means that the protein was enriched with, or labelled near, the bait; the list need not be complete.

This assay deals with band 3 (human (endogenous in RBCs)) (UniProt P02730). Nature of the assay: affinity purification with mass spectrometry; band 3 complexes captured from 1% deoxycholate extracts of RBC membranes (short-stored, about day 6, and long-stored, about day 42, ECs; bags A-C) on magnetic beads coated with anti-band 3 BRIC 6 and BRIC 170, 1 h at 4°C; eluates separated by SDS-PAGE, digested in gel, LC-MS/MS; presence or absence only.

As to “Ubiquitin-conjugating enzyme E2N (from UniProt P61088 1-152)”, the binding result was “binds”. As for “Hemoglobin subunit delta (from UniProt P02042 1-147)”, the entry is “binds”; as for “ATP-citrate synthase (from UniProt P53396 1-1101) (enzyme)”, “binds”; as for “Alpha-adducin (from UniProt P35611 1-737)”, “binds”.

For the molecule “Ras-related protein Rap-1b (from UniProt P61224 1-184)”, the binding entry was “binds”.

B1: Ras-related protein Rap-2b (protein, UniProt P61225 1-183)
chain: MREYKVVVLGSGGVGKSALTVQFVTGSFIEKYDPTIEDFYRKEIEVDSSPSVLEILDTAGTEQFASMRDLYIKNGQGFILVYSLVNQQSFQDIKPMRDQIIRVKRYERVPMILVGNKVDLEGEREVSYGEGKALAEEWSCPFMETSAKNKASVDELFAEIVRQMNYAAQPNGDEGCCSACVIL
Turning to B1, the binding result is “binds”.

B2: Flotillin-2 (natural protein, human (endogenous in RBCs), UniProt Q14254 1-428, looked up)
chain: MGNCHTVGPNEALVVSGGCCGSDYKQYVFGGWAWAWWCISDTQRISLEIMTLQPRCEDVETAEGVALTVTGVAQVKIMTEKELLAVACEQFLGKNVQDIKNVVLQTLEGHLRSILGTLTVEQIYQDRDQFAKLVREVAAPDVGRMGIEILSFTIKDVYDKVDYLSSLGKTQTAVVQRDADIGVAEAERDAGIREAECKKEMLDVKFMADTKIADSKRAFELQKSAFSEEVNIKTAEAQLAYELQGAREQQKIRQEEIEIEVVQRKKQIAVEAQEILRTDKELIATVRRPAEAEAHRIQQIAEGEKVKQVLLAQAEAEKIRKIGEAEAAVIEAMGKAEAERMKLKAEAYQKYGDAAKMALVLEALPQIAAKIAAPLTKVDEIVVLSGDNSKVTSEVNRLLAELPASVHALTGVDLSKIPLIKKATGVQV
notes: flotillin-2, human, SwissProt Q14254; source: endogenous, membranes of stored human RBCs and storage-induced microvesicles, 1% deoxycholate extract
With B2, the binding result is “binds”.

B3: Tropomodulin-1 (protein, UniProt P28289 1-359)
chain: MSYRRELEKYRDLDEDEILGALTEEELRTLENELDELDPDNALLPAGLRQKDQTTKAPTGPFKREELLDHLEKQAKEFKDREDLVPYTGEKRGKVWVPKQKPLDPVLESVTLEPELEEALANASDAELCDIAAILGMHTLMSNQQYYQALSSSSIMNKEGLNSVIKPTQYKPVPDEEPNSTDVEETLERIKNNDPKLEEVNLNNIRNIPIPTLKAYAEALKENSYVKKFSIVGTRSNDPVAYALAEMLKENKVLKTLNVESNFISGAGILRLVEALPYNTSLVEMKIDNQSQPLGNKVEMEIVSMLEKNATLLKFGYHFTQQGPRLRASNAMMNNNDLVRKRRLADLTGPIIPKCRSGV
As for B3, the binding entry is given as “binds”.

B4: Phosphatidylinositol-5-phosphate 4-kinase (enzyme, UniProt P48426 1-406)
chain: MATPGNLGSSVLASKTKTKKKHFVAQKVKLFRASDPLLSVLMWGVNHSINELSHVQIPVMLMPDDFKAYSKIKVDNHLFNKENMPSHFKFKEYCPMVFRNLRERFGIDDQDFQNSLTRSAPLPNDSQARSGARFHTSYDKRYIIKTITSEDVAEMHNILKKYHQYIVECHGITLLPQFLGMYRLNVDGVEIYVIVTRNVFSHRLSVYRKYDLKGSTVAREASDKEKAKELPTLKDNDFINEGQKIYIDDNNKKVFLEKLKKDVEFLAQLKLMDYSLLVGIHDVERAEQEEVECEENDGEEEGESDGTHPVGTPPDSPGNTLNSSPPLAPGEFDPNIDVYGIKCHENSPRKEVYFMAIIDILTHYDAKKKAAHAAKTVKHGAGAEISTVNPEQYSKRFLDFIGHILT
As for B4, the binding result is reported as “binds”.

B5: Adenylosuccinate lyase (enzyme, UniProt P30566 1-484)
chain: MAAGGDHGSPDSYRSPLASRYASPEMCFVFSDRYKFRTWRQLWLWLAEAEQTLGLPITDEQIQEMKSNLENIDFKMAAEEEKRLRHDVMAHVHTFGHCCPKAAGIIHLGATSCYVGDNTDLIILRNALDLLLPKLARVISRLADFAKERASLPTLGFTHFQPAQLTTVGKRCCLWIQDLCMDLQNLKRVRDDLRFRGVKGTTGTQASFLQLFEGDDHKVEQLDKMVTEKAGFKRAFIITGQTYTRKVDIEVLSVLASLGASVHKICTDIRLLANLKEMEEPFEKQQIGSSAMPYKRNPMRSERCCSLARHLMTLVMDPLQTASVQWFERTLDDSANRRICLAEAFLTADTILNTLQNISEGLVVYPKVIERRIRQELPFMATENIIMAMVKAGGSRQDCHEKIRVLSQQAASVVKQEGGDNDLIERIQVDAYFSPIHSQLDHLLDPSSFTGRASQQVQRFLEEEVYPLLKPYESVMKVKAELCL
Regarding B5, the binding result is “binds”.
